About 610 (0.17%) of roughly 360,000 compounds were called active. Inconclusive means that the source gave no clear call. Such entries were picked first, then a sample of the others. Rule as the data show it: active = inhibition above about 30%; inconclusive = no clear call, values can overlap the other calls; inactive = below that.
tested on: Botulinum neurotoxin type A light chain protease (Clostridium botulinum A str. ATCC 3502); experiment: blockers of BoNT/A LC substrate cleavage – biochemical, flow cytometry, MLPCN library, primary screen (AID 588499); details: multiplex microsphere protease substrate cleavage, at 10 µM, active compounds read high; also: plate controls were buffer without enzyme for full effect and enzyme alone for no effect

Row | SMILES | inhibition
1 | CCCCCC[N+](C)(C)CC/C=C1/c2ccccc2Sc2ccc(Cl)cc21 | inconclusive: -1.3%
2 | CCn1c(CCNC(=O)c2cccs2)nnc1SCC(=O)Nc1ccc(Cl)cc1 | inconclusive: 1%
3 | C=C(C)CSc1nc2sc3c(c2c(=O)n1-c1ccccc1)CCN(C)C3 | active: 37.4%
4 | COc1cccc(CCNC(=O)C2CCC(=O)N(Cc3cccc(OC)c3)C2)c1 (centres undefined) | inactive: 0.2%
5 | Cn1c(=O)c(N)c2c3c(c(Br)ccc31)C(=O)c1ccccc1-2 | active: 38.1%
6 | O=C(CSc1nnc(-c2ccccc2O)o1)N1CCc2ccccc2C1 | inconclusive: 3%
7 | Nn1c(SCC(=O)Nc2ccccc2F)nnc1-c1cccs1 | inconclusive: 0.8%
8 | CC(=O)N1CCN(c2ccc(NC(=O)c3ccco3)cc2Cl)CC1 | inconclusive: 0.7%
9 | O=C(Nc1ccno1)Nc1ccc(Cl)cc1Cl | inconclusive: -11.5%
10 | CNC(=O)COC(=O)c1[nH]c(C)c(C(C)=O)c1C | inconclusive: 0.5%
11 | O=C(NNS(=O)(=O)c1ccc(F)cc1)c1cc2ccccc2cc1O | inactive: -1.5%
12 | CCOC(=O)CN1C(=O)S/C(=C/c2ccc(N3CCCCC3)o2)C1=O | inactive: -0.9%
13 | Cc1noc(C)c1C(=O)Nc1sc(C)c(-c2ccccc2)c1C#N | inconclusive: 0.6%
14 | O=NN(CCc1ccncc1)c1ccc(OCc2ccccc2)cc1 | inactive: -0.4%
15 | CCn1c2ccccc2c2cc(NC(=O)CSc3nnc(-c4ccccc4OC)n3N)ccc21 | inconclusive: -6.9%
16 | CC1(C)CC(=O)C=C(Nc2ccccn2)C1 | inconclusive: 2.1%
17 | Cc1cc(Cl)c(C)c(S(=O)(=O)Oc2ccccc2NC(=O)CCC(=O)O)c1Cl | inactive: -0.3%
18 | CNc1cc(-n2nc(C)cc2-c2ccccc2)ncn1 | inactive: 0.7%
19 | O=C(CSc1cccc(C(F)(F)F)c1)Nc1ccc(Cl)cc1Cl | inconclusive: 0.8%
20 | Cc1cc(NC(=O)CSc2nnc(-c3ccncc3)n2Cc2ccccc2)n(-c2ccccc2)n1 | inconclusive: 3.8%

Of the compounds above, 2 have an aryl methoxy group:
Row | SMILES | inhibition
4 | COc1cccc(CCNC(=O)C2CCC(=O)N(Cc3cccc(OC)c3)C2)c1 (centres undefined) | inactive: 0.2%
15 | CCn1c2ccccc2c2cc(NC(=O)CSc3nnc(-c4ccccc4OC)n3N)ccc21 | inconclusive: -6.9%

Additional entries:

Row | SMILES | inhibition
21 | CCCC(=O)NC(=S)Nc1cc(-c2nc3ncccc3o2)ccc1C | inconclusive: -56.3%
22 | CC(=O)Nc1ccc(OC(=O)N(C)C)cc1 | inconclusive: -4.3%
23 | Cc1ccc(Cn2nnc3c(=O)[nH]c(C4CCCN(C(=O)c5ccco5)C4)nc32)cc1 (centres undefined) | inactive: -0.2%
24 | CN(CCc1ccccn1)C(=S)Nc1cccc(S(=O)(=O)N(C)C)c1 | inactive: -1.1%
25 | Cc1nc(C)c(C(=O)Nc2ccc(C)c(F)c2)o1 | inconclusive: 3.2%
26 | O=C(CSc1nnc2c(Cl)cc(C(F)(F)F)cn12)Nc1ccc2c(c1)OCO2 | inconclusive: 3.7%
27 | Cc1noc(NS(=O)(=O)c2ccc(NC(=O)COc3ccccc3)cc2)c1C | inactive: 3.3%
28 | CC(Nc1ccc(Cl)cc1)C(=O)NN (centres undefined) | inconclusive: -15.7%
29 | NC(=O)c1ccc(-n2c(CCC(=O)O)ccc2-c2cccs2)cc1 | inactive: -0.3%
30 | COC(=O)C1=CN(Cc2cccs2)C=C(C(=O)OC)C1c1cccc(OC)c1OC | inactive: 0.6%
31 | Cc1onc(-c2ccccc2)c1CNC(=O)C1COc2ccccc2O1 (centres undefined) | inconclusive: 12.7%
32 | COc1ccc(OC)c(CN2CCN(C(=O)CCNC(=O)c3ccc(Br)cc3)CC2)c1 | active: 33.7%
33 | Cc1ccc(C(=O)Nn2c(O)c(C=C3N=c4ccccc4=N3)sc2=S)cc1 | active: 77.5%
34 | Cc1cc(=O)oc(C)c1C(=O)NCCN1CCOCC1 | inconclusive: -0.6%
35 | Cc1ccccc1C(=O)N/N=C/c1ccncc1 | inconclusive: 0.6%
36 | O=C(CSCc1ccc(F)cc1)NCc1ccco1 | inconclusive: 5.6%
37 | O=S1(=O)CCC(N2CCOCC2)C1 (centres undefined) | inconclusive: -2.8%
38 | Cc1ccc(Sc2ncccc2[N+](=O)[O-])cc1 | inactive: -5.4%
39 | COc1ccc(C(=O)NCc2ccc3c(c2)cc(C)n3C)cc1 | active: 94.9%
40 | Cc1cccc(-n2c(O)cnc2Nc2nc(C)cc(C)n2)c1 | inactive: 0%

Row | SMILES | inhibition
41 | CC(=O)C1C(c2ccc([N+](=O)[O-])cc2)c2c(noc2C)CC1(C)O (centres undefined) | inconclusive: -7.2%
42 | CCN(CC)CCNC(=O)c1cc2c(-c3cccc(OC)c3)nn(C)c2s1 | inactive: -1.9%
43 | CC(O)(CS(=O)(=O)Cc1ccccc1)C(=O)Nc1ccc(C(F)(F)F)cc1 (centres undefined) | inconclusive: 0.8%
44 | Clc1cccc(CNc2ccn3nc(-c4cccc(Cl)c4)cc3n2)c1 | inactive: 0.1%
45 | CCn1cc(C(=O)OCC(=O)Nc2cccc(S(=O)(=O)N3CCOCC3)c2)c(=O)c2ccc(C)nc21 | inconclusive: -0.4%
46 | CC(=O)c1sc2nc(-c3ccc(C)cc3)c3c(c2c1N)CCCC3 | inactive: 6.9%
47 | Cc1ccccc1Cn1ccc(NC(=O)c2cnn3cccnc23)n1 | inconclusive: -1.2%
48 | CCN(CC)c1ccc(C(=C2C=CC(=[N+](CC)CC)C=C2)c2ccc(N(CC)CC)cc2)cc1 | inconclusive: 39.6%
49 | COc1ccc(Oc2cccc(Cl)c2CNC(=O)CC(C)(C)CC(=O)O)cc1 | inconclusive: 22.6%
50 | O=C(O)/C=C\C(=O)Nc1ccc(F)c(F)c1F | inconclusive: -14.6%
51 | O=C1NC(c2ccc(F)cc2)Oc2ccccc21 (centres undefined) | inconclusive: 0.1%
52 | O=C(C1CSC2(c3ccc(F)cc3)CCC(=O)N12)N1CCCCCC1 (centres undefined) | inactive: 4.7%
53 | CCc1ccc([C@@H]2CC(=O)[C@@H]3CN(S(=O)(=O)c4ccccc4)[C@H](c4ccc(OC)cc4)C[C@@H]3N2S(=O)(=O)c2ccc(C)cc2)cc1 | inactive: 0.1%
54 | COc1ccccc1OCCCn1c(=O)sc2ccccc21 | inconclusive: -1.4%
55 | CC(=O)N(CCC1(C(C)C)CCOC(C)(C)C1)C(C)c1cccs1 (centres undefined) | inconclusive: 1.3%
56 | O=C(O)CN=C1NC2(CCCCC2)Cc2ccccc21 | inconclusive: 4.4%
57 | CCOC(=O)c1cnc(-n2nc(C)cc2C)nc1NC | inconclusive: -0.3%
58 | CCOc1cccc(-c2c(C(=O)N/N=C/c3c(F)cccc3Cl)nnn2-c2nonc2N)c1 | inactive: -0.4%
59 | Fc1ccc(NC(=S)N2CCCC(c3ccccc3)=N2)cc1 | inconclusive: 36%

— PubChem BioAssay AID588499 (NMMLSC, 2011)
